Laboratory results from patent US20220242950A1.
Results are given in words; binding and its absence hold for the method and conditions named. Some binding calls cover weakened binding; strength is not graded here.

Experiments:
[1] = target: recombinant mf IL1RAP aa21-367 (cynomolgus monkey (Macaca fascicularis)); test: conclusion of Example 10
[2] = target: recombinant mf IL1RAP aa21-367 (cynomolgus monkey (Macaca fascicularis)); test: cross reactivity ELISA
[3] = target: pig IL1RAP (pig (Sus scrofa)); test: cross reactivity ELISA
[4] = target: recombinant mf IL1RAP aa21-367 (cynomolgus monkey (Macaca fascicularis)); test: indirect ELISA on coated IL1RAP, goat anti-human antibody-alkaline phosphatase, absorbance at 405 nm
[5] = target: pig IL1RAP (pig (Sus scrofa)); test: as above

Measured: binding

B1: chimeric 48D2 (antibody, V domains shown, not shown: a dimerising Fc or GST)
VH: QEQLEESGGGLVKPGGSLTLTCTVSGPSLSHFDITWVRQAPGSGLEWIGTISPGVSTYYASWAKSRSTITSNTNLNTVTLKMTSLTAADTATYFCARGGVGSSWKAFDLWGPGTLVTISS
VL: APVLTQTPASVEVAVGGTVTIKCQASESISTALAWYQQKPGQPPKLLIYKASTLPSGVSSRFKGSGSGTEFALTISDLECDDAATYYCQQGFSSGNVHNAFGGGTEVVVKR
binds: all assays above

B2: h48D2 VH5.GL:VL4 (antibody, human IgG1, kappa, L234A L235A, V domains shown)
VH: QEQLEESGGGLVKPGGTLSLTCTVSGPSLSHFDITWIRQPPGKGLEWIGTISPGVSTYYASWAKSRVTISVDTSLNTVSLKLSSVTAADTATYFCARGGVGSSWKAFDLWGPGTLVTISS
VL: ELVMTQSPSSVSASVGDRVTITCQASESISTALAWYQQKPGKAPKLLIYKASTLPSGVPSRFSGSGSGTDFTLTINSLQPEDFATYYCQQGFSSGNVHNAFGGGTKVEIKR
not listed: [1]
binds: all other assays above
